Reference: article PMC9873282, “Design, synthesis and evaluation of quinoline-O-carbamate derivatives as multifunctional agents for the treatment of Alzheimer’s disease” (Journal of Enzyme Inhibition and Medicinal Chemistry, 2023)

Test system: AlCl3-induced zebrafish AD model
Experiment: Behavioural assay in AlCl3-induced zebrafish AD model
Type: in vivo

## COc1cc2c(cc1OC)C(=O)C(CC1CCN(Cc3ccccc3)CC1)C2 (stereo not shown) [Donepezil, reference compound]
Alternating dark light stimuli, 8 µM
  distance moved: 999.4 cm
Alternating dark light stimuli, donepezil (8 µM)
  velocity: 16.7 cm/min
Dark environment, 8 µM, model 13.8 cm/min, untreated 19.1 cm/min
  velocity: 18.5 cm/min
Dark environment, 8 µM, model 447.4 cm, untreated 582.9 cm
  distance moved: 543.8 cm
